Assay results reported in article doi:10.1101/2022.01.24.477493.

Chains of the proteins cited; added tags and fusions are not shown.
UniProt O35350: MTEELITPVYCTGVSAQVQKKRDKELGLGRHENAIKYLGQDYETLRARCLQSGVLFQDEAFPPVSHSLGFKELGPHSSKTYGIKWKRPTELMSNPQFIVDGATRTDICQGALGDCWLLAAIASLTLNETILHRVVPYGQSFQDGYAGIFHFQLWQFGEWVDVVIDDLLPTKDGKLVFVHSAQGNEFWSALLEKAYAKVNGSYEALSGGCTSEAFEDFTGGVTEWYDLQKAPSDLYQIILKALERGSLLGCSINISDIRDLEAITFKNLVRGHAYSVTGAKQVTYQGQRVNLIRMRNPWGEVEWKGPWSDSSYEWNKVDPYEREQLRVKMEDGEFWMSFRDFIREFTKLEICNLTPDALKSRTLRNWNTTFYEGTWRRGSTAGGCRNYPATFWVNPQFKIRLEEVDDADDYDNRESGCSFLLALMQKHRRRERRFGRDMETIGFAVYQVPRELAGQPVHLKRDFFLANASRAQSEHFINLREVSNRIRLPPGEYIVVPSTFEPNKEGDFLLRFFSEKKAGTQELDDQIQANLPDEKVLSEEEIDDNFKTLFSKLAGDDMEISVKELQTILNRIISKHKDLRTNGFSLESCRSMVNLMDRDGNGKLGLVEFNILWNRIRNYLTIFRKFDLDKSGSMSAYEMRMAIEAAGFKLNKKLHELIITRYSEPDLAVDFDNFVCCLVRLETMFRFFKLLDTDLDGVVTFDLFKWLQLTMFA
UniProt Q9D5T0: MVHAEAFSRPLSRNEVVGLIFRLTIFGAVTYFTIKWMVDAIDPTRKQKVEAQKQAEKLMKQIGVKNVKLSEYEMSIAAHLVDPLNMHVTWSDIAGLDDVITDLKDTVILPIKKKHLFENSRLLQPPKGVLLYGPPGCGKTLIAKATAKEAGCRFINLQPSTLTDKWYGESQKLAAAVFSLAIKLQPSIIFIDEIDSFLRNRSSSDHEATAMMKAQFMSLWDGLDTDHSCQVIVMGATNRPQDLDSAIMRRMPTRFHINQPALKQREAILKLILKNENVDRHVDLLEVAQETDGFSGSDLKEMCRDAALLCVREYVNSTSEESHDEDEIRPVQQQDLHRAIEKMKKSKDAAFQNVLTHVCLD
UniProt O88685: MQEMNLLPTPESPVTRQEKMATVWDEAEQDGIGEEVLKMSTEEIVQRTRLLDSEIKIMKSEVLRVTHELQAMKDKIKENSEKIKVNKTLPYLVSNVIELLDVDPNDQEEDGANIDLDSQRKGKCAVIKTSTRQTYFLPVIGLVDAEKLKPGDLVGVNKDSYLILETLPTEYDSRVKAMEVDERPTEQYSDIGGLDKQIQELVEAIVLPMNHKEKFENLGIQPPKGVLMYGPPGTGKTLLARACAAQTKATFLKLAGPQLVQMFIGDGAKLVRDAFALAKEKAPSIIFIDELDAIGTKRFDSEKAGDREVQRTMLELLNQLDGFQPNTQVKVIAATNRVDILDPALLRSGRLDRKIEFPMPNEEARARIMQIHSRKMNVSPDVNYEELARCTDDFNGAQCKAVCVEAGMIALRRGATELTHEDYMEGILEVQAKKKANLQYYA

Key:
[1] = biological target: calpain-1 (mouse (endogenous in mouse muscle)) (UniProt O35350); experiment: affinity purification with mass spectrometry
[2] = biological target: ATAD1 (mouse (endogenous in mouse muscle)) (UniProt Q9D5T0); experiment: SEC + affinity purification with mass spectrometry
[3] = biological target: ATAD1 (mouse (endogenous in mouse muscle)) (UniProt Q9D5T0); experiment: affinity purification with mass spectrometry

binding [2] | also measured | Molecule
 | binding [1]: binds | ATAD1 (from UniProt Q9D5T0 1-361) (enzyme)
binds |  | PSMC3 (Rpt5) (from UniProt O88685 1-442)
no binding |  | p97/VCP (from UniProt Q01853 1-806) (enzyme)
binds |  | UBXN4 (protein, UniProt Q8VCH8 1-506) MLWFQGAIPAAIASAKRSGAVFVVFVAGDDEQSIQMAASWEDEKVTQASSNNFVAIKIDTKSEACLQFSQIYPVVCVPSSFFIGDSGIPLEVIAGSVSADELVTRIHKVQQMHSSKGEASVTNDNQSESSVSTPSASFEPDVCENPESKNTELCETPATSDIKSDTATGGECTGHDSHSQEPHGCSNQRPAEDLTVRVERLTKKLEERREEKRKEEAQREIKKEIERRKTGKEMLDYKRKQEEELTKRMLEERSREKAEDRAARERIKQQIALDRAERAARFAKTKEAEAAKAAALLTKQAGTEVKRESTARDRSTIARIQFRLPDGSSFTNQFPSDAPLEEARQFAAQTVGNTYGNFSLATMFPRREFTREDYKRRLLDLELAPSASVVLLPAGRPATSIVHSSSGDIWTLLGTVLYPFLAIWRLISNFLFSNPPPAQTSARATSTEPSNSASSSKSEKREPVRKRMLEKRGEDFKKEGKIYRLRTQDDGEDENNTWNGNSTQQM
 | binding [3]: binds | Phospholipase A-2-activating protein (PLAA) (protein, UniProt P27612 1-794) MASGASRYRLSCSLPGHELDVRGLVCCLYPPGAFVSVSRDRTTRLWAPDSPNRGFTEMHCMSGHSNFVSCVCIIPSSDIYPHGLIATGGNDHNICIFSLDSPMPLYILKGHKDTVCSLSSGKFGTLLSGSWDTTAKVWLNDKCMMTLQGHTAAVWAVKILPEQGLMLTGSADKTIKLWKAGRCERTFLGHEDCVRGLAILSETEFLSCANDASIRRWQITGECLEVYFGHTNYIYSISVFPNSKDFVTTAEDRSLRIWKHGECAQTIRLPAQSIWCCCVLENGDIVVGASDGIIRVFTESEERTASAEEIKAFERELSQATIDSKTGDLGDINAEQLPGREHLSEPGTREGQTRLIRDGERVEAYQWSVSDGRWIKIGDVVGSSGANQQTSGKVLYEGKEFDYVFSIDVNEGGPSYKLPYNVSDDPWLVAYNFLQKNDLNPMFLDQVAKFIIDNTKGQTLGLGNTSFSDPFTGGGRYVPGTSGPSNTVQTADPFTGAGRYMPGSAGMDTTMTGVDPFTGNSAYRSAASKTVNIYFPKKEALTFDQANPTQILGKLKELNGTAPEEKKLTEDDLVLLEKILSLICNNSSEKPTAQQLQILWKAINWPEDIVFPALDILRLSIKHPNVNENFCNEKGDQFSSHLINLLNPKGKPANQLLALRTFCNCFVSQAGQKLMMSQRESLMSHAIELKSGSNKNIHIALATLTLNYSVCFHKDHNIEGKAQCLSVISTILEVVQDLEATFRLLVALGTLISDDSNAIQLAKSLGVDSQIKKYVSVSEPAKVSECCRLVLHLL

These are yes or no findings as the source states them, for the method shown. In cells and extracts the contact can be indirect. A yes stands for co-enrichment or nearness to the bait. Other partners may have been found. For some assays here: No binding means not detected with the bait.
